# Laboratory results taken from PubChem BioAssay AID330 (DTP/NCI, 2004).
# The list does not hold the whole screen: it is rich in T/C values a quarter to a half above the control, in often repeated tests (any T/C) and in doses without a T/C. Further doses and runs are listed elsewhere. T/C gives the treated animals as a percentage of the vehicle group. Some entries give survivors of the animals treated and no T/C: the source files T/C as zero there, which appears to mark a toxic dose or a test without result, not a measured value. Some survivor counts are full or nearly so, which does not show that the dose was tolerated: the source hardly ever lists a survival T/C far under the control, and the zero likely stands for such cases as well. Survivors were counted at the toxicity check, usually on the fifth day, unless a day is given; later deaths do not show. Schedules are NCI's codes, taken here to give the interval after Q, in days (D) or hours (H), and the number of doses after X. For survival time, this PubChem deposit counts one and a half times the control or more as active, and values a quarter to a half above the control carry no call in these data; other NCI protocols may use other cut-offs. Some entries were tested several times; the values are given in rising order. Some T/C values are followed by the survivors on the day toxicity was checked, most often the fifth; where none is given, no animal had died by that day.
# System: P388 leukemia ip, CD2F1 mice, survival T/C
# Test: NCI In Vivo Anticancer Drug Screen. Data for tumor model P388 Leukemia (intraperitoneal) in CD2F1 (CDF1) mice
# Conditions: T/C endpoint: median survival time, higher T/C = longer survival
# [1] = dose: 50.0 mg/kg/injection, schedule: Q01DX009 (ip), vehicle: saline with Tween-80
# [2] = dose: 100.0 mg/kg/injection, schedule: Q04DX003 (ip), vehicle: saline with Tween-80
# [3] = dose: 200.0 mg/kg/injection, schedule: Q04DX003 (ip), vehicle: saline with Tween-80
# [4] = dose: 400.0 mg/kg/injection, schedule: Q04DX003 (ip), vehicle: saline with Tween-80
# [5] = dose: 100.0 mg/kg/injection, schedule: Q01DX009 (ip), vehicle: Klucel (hydroxypropylcellulose) (HPC)
# [6] = dose: 12.5 mg/kg/injection, schedule: Q01DX009 (ip), vehicle: saline with Tween-80
# [7] = dose: 25.0 mg/kg/injection, schedule: Q01DX009 (ip), vehicle: saline with Tween-80
# [8] = dose: 50.0 mg/kg/injection, schedule: Q01DX005 (ip), vehicle: Klucel (hydroxypropylcellulose) (HPC)
# [9] = dose: 100.0 mg/kg/injection, schedule: Q01DX005 (ip), vehicle: Klucel (hydroxypropylcellulose) (HPC)
# [10] = dose: 200.0 mg/kg/injection, schedule: Q01DX005 (ip), vehicle: Klucel (hydroxypropylcellulose) (HPC)
# [11] = dose: 200.0 mg/kg/injection, schedule: Q01DX009 (ip), vehicle: saline with Tween-80
# [12] = dose: 100.0 mg/kg/injection, schedule: Q01DX009 (ip), vehicle: saline with Tween-80
# [13] = dose: 120.0 mg/kg/injection, schedule: Q01DX005 (ip), vehicle: saline
# [14] = dose: 50.0 mg/kg/injection, schedule: Q01DX009 (ip), vehicle: Klucel (hydroxypropylcellulose) (HPC)
# [15] = dose: 200.0 mg/kg/injection, schedule: Q01DX009 (ip), vehicle: Klucel (hydroxypropylcellulose) (HPC)
# [16] = dose: 400.0 mg/kg/injection, schedule: Q04DX002 (ip), vehicle: saline with Tween-80
# [17] = dose: 400.0 mg/kg/injection, schedule: Q01DX009 (ip), vehicle: saline with Tween-80
# [18] = dose: 240.0 mg/kg/injection, schedule: Q01DX005 (ip), vehicle: saline with Tween-80
smiles,measurement,setting,value
NC(Cc1ccccc1)C(=O)Nc1ccncc1 (stereo unspecified),survivor count,"dose: 100.0 mg/kg/injection, schedule: Q01DX001 (ip), vehicle: saline",0 of 6
same,survivor count,"dose: 200.0 mg/kg/injection, schedule: Q01DX001 (ip), vehicle: saline",0 of 6
same,survivor count,"dose: 400.0 mg/kg/injection, schedule: Q01DX001 (ip), vehicle: saline",0 of 6
Cc1cc(N(CCCl)CCCl)ccc1N=Nc1ccccc1C(=O)[O-].Cc1cc(N(CCCl)CCCl)ccc1N=Nc1ccccc1C(=O)[O-].[Cu+2],T/C,"dose: 3.0 mg/kg/injection, schedule: Q04DX003 (ip), vehicle: saline with Tween-80",125 % of control
same,T/C,"dose: 6.0 mg/kg/injection, schedule: Q04DX003 (ip), vehicle: saline with Tween-80",130 % of control
same,survivor count,[1],5 of 6
same,survivor count,[2],6 of 6
same,survivor count,[3],6 of 6
same,survivor count,[4],6 of 6
ClC1CCCCC1C(C1CCCCC1)C1CCCCC1 (stereo unspecified),survivor count,"dose: 200.0 mg/kg/injection, schedule: Q01DX005 (ip), vehicle: saline with Tween-80",5 of 5
O=c1nc(-c2ccco2)sc(=O)[nH]1,T/C,[5],125 % of control
CN1CCC(OC(=O)c2ccc3c(c2)OCO3)CC1,survivor count,[2],1 of 6
same,survivor count,[3],0 of 6
same,survivor count,[4],0 of 6
CCN(CC)Cc1cc(C(=O)CC(c2ccccc2)S(=O)(=O)c2ccc(C)cc2)ccc1O (stereo unspecified),survivor count,[6],6 of 6
same,survivor count,[7],5 of 6
same,survivor count,[1],6 of 6
same,survivor count,"dose: 100.0 mg/kg/injection, schedule: Q01DX009 (ip), vehicle: saline",3 of 6
same,survivor count,"dose: 200.0 mg/kg/injection, schedule: Q01DX009 (ip), vehicle: saline",3 of 6
CC(C)(C)c1cc(C#C[Si](C)(C)C)cc(C(C)(C)C)c1,survivor count,[8],6 of 6
same,survivor count,[9],6 of 6
same,survivor count,[10],6 of 6
CC(C)SC(=S)Nc1cc(Cl)c(Cl)cc1Cl,survivor count,[11],1 of 6
CC(C)C1=C(O)C2=C(C(=O)C1=O)C1(C)CCCC(C)(C)C1C(O)C2OC=O (stereo unspecified),survivor count,[10],0 of 6
C=C(CC(=O)O)C(=O)O (tested in a mixture with another compound),T/C,[1],125 % of control
same,T/C,[12],135 % of control [5 of 6 alive]
same,survivor count,[11],4 of 6
O=C1NC(=O)C(=NC2C(=O)NC(=O)NC2=O)C(=O)N1,survivor count,[13],6 of 6
CC1(C(Cl)(Cl)Cl)C=C(Cl)C(=O)C(Cl)=C1,survivor count,[9],5 of 5
N#CC(Cl)CNC(=O)Oc1ccccc1 (stereo unspecified),survivor count,[9],0 of 6
same,survivor count,[10],0 of 6
same,survivor count,"dose: 400.0 mg/kg/injection, schedule: Q01DX005 (ip), vehicle: Klucel (hydroxypropylcellulose) (HPC)",0 of 6
c1cc[c]([Pb]([S]c2nc3ccccc3[nH]2)([c]2ccccc2)[c]2ccccc2)cc1,survivor count,"dose: 6.0 mg/kg/injection, schedule: Q01DX009 (ip), vehicle: Klucel (hydroxypropylcellulose) (HPC)",5 of 6
same,survivor count,"dose: 12.0 mg/kg/injection, schedule: Q01DX009 (ip), vehicle: Klucel (hydroxypropylcellulose) (HPC)",0 of 6
O=[N+]([O-])c1ccc([S][Pb]([c]2ccccc2)([c]2ccccc2)[c]2ccccc2)cc1,survivor count,[14],5 of 6
same,survivor count,[5],1 of 6
same,survivor count,[15],0 of 6
CCCC1CCC(=C2C(=O)CCC2=O)O1 (stereo unspecified),survivor count,[16],0 of 6
O=C1CC(c2ccccc2)NCCCCN2C(=O)C=Cc3ccccc3C2CCN1 (stereo unspecified),survivor count,"dose: 25.0 mg/kg/injection, schedule: Q01DX009 (ip), vehicle: Klucel (hydroxypropylcellulose) (HPC)",6 of 6
same,survivor count,[14],6 of 6
COC(=O)c1ccccc1NC(=O)N1CC1,survivor count,"dose: 200.0 mg/kg/injection, schedule: Q01DX005 (ip), vehicle: DMSO",5 of 6
COCC/C(COC)=N\N=C(/CCOC)COC,survivor count,[11],6 of 6
same,survivor count,[17],0 of 6
N#Cc1ccc(NN=NCCOCCCl)cc1,survivor count,[11],4 of 6
same,survivor count,[17],0 of 6
CCOC(=O)c1nc(SC)sc1N,survivor count,[18],1 of 6
CCOC(=O)C(C)(NC(=O)c1ccccc1)C(=O)OCC,survivor count,[13],6 of 6
CCc1ccccc1NC(=O)C(C#N)C1=C(Cl)C(=O)c2ccccc2C1=O (stereo unspecified),survivor count,[18],1 of 6
Cc1nc(C#N)c(=N)n(O)c1Cl,T/C,[6],127 % of control [5 of 6 alive]
same,T/C,[7],133 % of control
same,survivor count,[1],4 of 6
O=C(Nc1nncs1)c1cccs1,T/C,"dose: 200.0 mg/kg/injection, schedule: Q04DX002 (ip), vehicle: saline with Tween-80",133 % of control
same,T/C,[16],145 and 149 % of control
same,T/C,"dose: 400.0 mg/kg/injection, schedule: Q04DX002 (ip), vehicle: saline",132 % of control
same,T/C,"dose: 600.0 mg/kg/injection, schedule: Q04DX002 (ip), vehicle: saline",149 % of control
CCN=C(Cl)N(C)c1ccccc1,survivor count,[15],3 of 6
CC(=O)OC1CN(C)CC=C1c1ccccc1 (stereo unspecified),survivor count,"dose: 120.0 mg/kg/injection, schedule: Q01DX005 (ip), vehicle: saline with Tween-80",0 of 6
same,survivor count,[18],0 of 6
CNC(C)C1(O)Cc2c(O)c3c(c(O)c2C(OC2CC(N)C(O)C(C)O2)C1)C(=O)c1c(OC)cccc1C3=O (stereo unspecified),T/C,"dose: 0.5 mg/kg/injection, schedule: Q01DX009 (ip), vehicle: water",127 % of control
same,T/C,"dose: 1.0 mg/kg/injection, schedule: Q01DX009 (ip), vehicle: water",133 % of control
same,T/C,"dose: 2.0 mg/kg/injection, schedule: Q01DX009 (ip), vehicle: water",135 and 146 % of control
same,T/C,"dose: 4.0 mg/kg/injection, schedule: Q01DX009 (ip), vehicle: water",144 % of control
same,survivor count,"dose: 32.0 mg/kg/injection, schedule: Q01DX009 (ip), vehicle: water",4 of 6
CC[OH+]CC[OH+]CC[OH+]C1CCCC2CCC[N-]C21.[Cl][Cu][Cl] (stereo unspecified),survivor count,"dose: 25.0 mg/kg/injection, schedule: Q01DX005 (ip), vehicle: Klucel (hydroxypropylcellulose) (HPC)",1 of 6
same,survivor count,[8],0 of 6
same,survivor count,[9],0 of 6
same,survivor count,[10],0 of 6
O=P(CCP(=O)(c1ccccc1)c1ccccc1)(c1ccccc1)c1ccccc1.[Cl][Sn]([Cl])([c]1ccccc1)[c]1ccccc1,T/C,"dose: 3.12 mg/kg/injection, schedule: Q01DX005 (ip), vehicle: Klucel (hydroxypropylcellulose) (HPC)",128 % of control
same,T/C,"dose: 6.25 mg/kg/injection, schedule: Q01DX005 (ip), vehicle: Klucel (hydroxypropylcellulose) (HPC)",126 and 131 % of control
same,survivor count,"dose: 12.5 mg/kg/injection, schedule: Q01DX005 (ip), vehicle: Klucel (hydroxypropylcellulose) (HPC)",1 of 6
same,survivor count,[8],2 of 6
same,survivor count,[9],0 of 6
same,survivor count,[10],0 of 6
CNC(C(=O)OC(C)(C)C)C(C)C (stereo unspecified),survivor count,"dose: 200.0 mg/kg/injection, schedule: Q01DX005 (ip), vehicle: saline",2 of 6
C=CCN(CC=C)c1ccc(/C=C\c2ccnc3ccccc23)cc1,survivor count,[1],6 of 6
same,survivor count,[12],5 of 6
same,survivor count,[11],0 of 6
same,survivor count,[17],0 of 6
O=C(Cn1cnc2c(=S)nc[nH]c21)Oc1ccc([N+](=O)[O-])cc1,survivor count,[2],6 of 6
COC(=O)c1nc(=S)[nH]c(C(=O)OC)c1C(=O)c1ccc(O)c(OC)c1,survivor count,"dose: 240.0 mg/kg/injection, schedule: Q01DX005 (ip), vehicle: Klucel (hydroxypropylcellulose) (HPC)",0 of 6
CCCCOP(O)(=S)OCCCC.[Sm],survivor count,"dose: 400.0 mg/kg/injection, schedule: Q01DX001 (ip), vehicle: saline with Tween-80",6 of 6
